Laboratory results taken from patent US20030018166A1 (priority 2000, published 2003).
At least one structure is not confirmed: it was looked up by name or label, or the drawing left a doubt.

System: Δicl M. smegmatis mutant complemented with the M. tuberculosis icl gene (pICL1)
Assay type: cell-based
Conditions: discs 30 mM and 60 mM

Q: How did the “effect on growth, inhibition zone around disc” value turn out when `O=C(O)C(=O)CBr` [bromopyruvate, 3-bromopyruvate] was run?
A: inhibitory
